Reference: PMC4422613
No constants are given. Whether binding was seen depends on the method and setting. In cells and extracts the contact can be indirect. Sequences can lack the tags named with a protein.

Amino acid sequences for entries named in this document (tags omitted).
UniProt P41917: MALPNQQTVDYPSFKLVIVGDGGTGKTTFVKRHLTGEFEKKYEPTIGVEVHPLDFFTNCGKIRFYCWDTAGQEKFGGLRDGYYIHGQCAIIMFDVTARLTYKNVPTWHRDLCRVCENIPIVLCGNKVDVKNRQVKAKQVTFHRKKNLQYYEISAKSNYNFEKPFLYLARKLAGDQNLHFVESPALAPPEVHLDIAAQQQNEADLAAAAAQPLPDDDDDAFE

Biological target: T1, Mm_Bt-HA (Mus musculus) (UniProt Q6ZQE4)
T1 sequence: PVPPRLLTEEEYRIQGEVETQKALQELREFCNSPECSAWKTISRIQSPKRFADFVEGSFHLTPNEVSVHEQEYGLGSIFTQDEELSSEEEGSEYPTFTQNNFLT
Experiment: co-IP; Xenopus embryos co-injected with mRNAs; conditions as in Fig 3; immunoprecipitation against HA, western blot with anti-Myc or anti-HA

binding: no binding
Substance: Myc-tagged At_Ran2 (from UniProt P41917 1-221)
